Assay results taken from paper PMC4285172.
No constants are given. Whether binding was seen depends on the method and setting. Binding seen in cells or lysates may run through a third protein. Some results given as binding are weak or reduced against the parent protein; the word gives no strength.

Protein sequences, listed by entry. Tags and fused reporters are not part of them. Residues count along the entry.
UniProt Q9QUN7, residues 25-784: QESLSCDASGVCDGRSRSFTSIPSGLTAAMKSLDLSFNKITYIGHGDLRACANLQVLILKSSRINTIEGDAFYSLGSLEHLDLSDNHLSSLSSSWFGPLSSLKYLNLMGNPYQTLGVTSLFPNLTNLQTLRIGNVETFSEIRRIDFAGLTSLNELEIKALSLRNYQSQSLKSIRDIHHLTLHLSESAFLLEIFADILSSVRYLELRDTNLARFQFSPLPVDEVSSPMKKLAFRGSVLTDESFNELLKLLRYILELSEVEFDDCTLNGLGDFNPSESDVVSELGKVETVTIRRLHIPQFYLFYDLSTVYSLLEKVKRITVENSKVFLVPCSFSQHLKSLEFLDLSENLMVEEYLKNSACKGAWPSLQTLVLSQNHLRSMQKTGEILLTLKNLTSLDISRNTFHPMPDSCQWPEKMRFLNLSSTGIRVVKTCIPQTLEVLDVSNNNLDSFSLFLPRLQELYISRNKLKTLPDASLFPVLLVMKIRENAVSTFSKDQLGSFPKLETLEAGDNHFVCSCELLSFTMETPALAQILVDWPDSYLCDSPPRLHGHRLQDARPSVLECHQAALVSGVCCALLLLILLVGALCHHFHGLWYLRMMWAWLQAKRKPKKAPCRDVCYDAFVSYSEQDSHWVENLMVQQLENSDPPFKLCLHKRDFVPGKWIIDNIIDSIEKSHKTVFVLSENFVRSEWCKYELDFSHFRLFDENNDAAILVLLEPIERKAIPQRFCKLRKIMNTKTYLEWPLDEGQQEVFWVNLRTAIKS
UniProt Q9QUK6, residues 26-835: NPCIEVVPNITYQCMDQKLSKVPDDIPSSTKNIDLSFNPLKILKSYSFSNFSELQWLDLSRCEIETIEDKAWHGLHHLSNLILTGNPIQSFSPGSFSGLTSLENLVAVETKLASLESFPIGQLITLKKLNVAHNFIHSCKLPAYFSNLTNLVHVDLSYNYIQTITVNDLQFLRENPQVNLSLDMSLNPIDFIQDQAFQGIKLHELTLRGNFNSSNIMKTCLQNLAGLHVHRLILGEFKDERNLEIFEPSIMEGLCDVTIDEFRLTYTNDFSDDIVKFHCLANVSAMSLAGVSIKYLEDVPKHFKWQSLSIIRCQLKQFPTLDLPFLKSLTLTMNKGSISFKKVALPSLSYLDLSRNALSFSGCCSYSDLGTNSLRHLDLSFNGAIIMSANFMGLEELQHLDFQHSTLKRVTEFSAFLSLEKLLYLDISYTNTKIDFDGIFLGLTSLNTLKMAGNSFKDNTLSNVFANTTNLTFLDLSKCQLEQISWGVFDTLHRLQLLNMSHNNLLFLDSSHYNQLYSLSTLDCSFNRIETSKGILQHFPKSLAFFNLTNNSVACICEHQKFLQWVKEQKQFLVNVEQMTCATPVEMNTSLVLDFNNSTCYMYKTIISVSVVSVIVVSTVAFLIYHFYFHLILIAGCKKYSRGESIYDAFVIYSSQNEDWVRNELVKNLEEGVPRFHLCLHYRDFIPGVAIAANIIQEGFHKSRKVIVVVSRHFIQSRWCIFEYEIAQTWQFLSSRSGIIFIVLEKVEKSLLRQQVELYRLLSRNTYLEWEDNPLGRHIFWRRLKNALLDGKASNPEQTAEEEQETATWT

Assays:
[1] = molecular target: Toll-like receptor (TLR)-2 (mouse (endogenous in BMDMs from C57BL/6 mice)) (UniProt Q9QUN7); experiment: condition: only macrophages treated with vLPS (1 μg/ml); co-IP; BMDMs treated with vLPS (1 μg/ml) without cytochalasin-D; lysed with 1% Triton X-100, 10 mM Tris-HCl pH 7.4, 150 mM NaCl, 1 mM EDTA pH 8.0; TLR-2 immunoprecipitated overnight with anti-TLR-2 and protein A Sepharose, TLR-4 detected by immunoblot
[2] = molecular target: Toll-like receptor (TLR)-2 (mouse (endogenous in BMDMs from C57BL/6 mice)) (UniProt Q9QUN7); experiment: co-IP; BMDMs untreated, treated with avLPS (1 μg/ml), or treated with vLPS (1 μg/ml) in presence of cytochalasin-D (1 μg/ml); lysed with 1% Triton X-100, 10 mM Tris-HCl pH 7.4, 150 mM NaCl, 1 mM EDTA pH 8.0; TLR-2 immunoprecipitated overnight with anti-TLR-2 and protein A Sepharose, TLR-4 detected by immunoblot

binding [1]: no binding
binding [2]: binds
Substance: Toll-like receptor (TLR)-4 (from UniProt Q9QUK6 26-835)
